Assay results from publication doi:10.1101/2023.11.28.568993.

Legend:
[1] = tested on: p53 DBD R249S; assay: EMSA; details: released from DNAJA2 by Hsp70 system, did not regain any DNA-binding activity
[2] = tested on: p53 DBD WT; assay: EMSA

## TGGCCATCAGGAACATGACCCAACATGTTGAGCTCTGGCA (double strand) [p21 promoter DNA oligo]
[1]
  binding result: no binding
[2]; aggregated p53 after incubation at elevated temperature without chaperone
  binding result: no binding
[2]; p53 in complex with DNAJA2 (before Hsp70 release)
  binding result: no binding
[2]; untreated p53, 25 C
  binding result: binds

For at least one entry, the source does not settle the construct or the ends of the probe. A negative result means that nothing was seen under these conditions. For some of these results: At least one verdict was read from the data and is not stated in words by the source.
